pIC50: −log10 of the molar value.
Legend:
[1] = system: CHIKV; experiment: microbe, parasite or virus in culture; format: cell-based; conditions: Chikungunya virus, HEK293, read-out: CHIKV IC50
[2] = system: HEK-293 cells; experiment: Cell viability, Cell Proliferation Reagent WST-1; format: cell-based; conditions: Homo sapiens, HEK293, 18 h, read-out: WST-1 IC50
Protocol: To exclude the possible cytotoxic effects, all compounds were additionally tested using the ‘Cell Proliferation Reagent WST-1' (Roche Diagnostics). HEK-293 cells were treated with the same concentrations of the various substances and 18 h later WST-1 was added. Readout was conducted using the EnVision Multilabel Reader (PerkinElmer).

CNC(=O)c1ccccc1Sc1ccc2c(/C=C/c3ccccn3)n[nH]c2c1 [Axitinib]
pIC50 [1]: 6.52
pIC50 [2]: 6.47

From PMC4865845, “A human genome-wide loss-of-function screen identifies effective chikungunya antiviral drugs” (Nature Communications, 2016)
